# Out of some 300,000 compounds screened, about 5,400 (1.8%) were called active. Inconclusive means that the source gave no clear call. Such entries were picked first, then a sample of the others. Calls come from the whole dose curve; tested in HEK293 cells. Potencies of inconclusive entries are doubtful fits and often do not repeat.
# Assay: qHTS for inhibitors of binding or entry into cells for Marburg Virus
# Conditions: Marburg virus pseudotyped entry inhibition, cell reporter; activity change, negative = inhibition: at 37.8 µM (top of the series) unless noted
# % is set by controls: 0 for no effect and ±100 for the full control effect; potency is the fitted concentration of half-maximal effect.
SMILES,Potency,"activity change, negative = inhibition"
Cc1ccc(C)c(S(=O)(=O)N(C)c2ccc(OC(=O)C3CCN(C(=O)c4ccc(F)cc4)CC3)cc2)c1,"inconclusive: 2.82 µM [activator, full curve, poor fit]",–
O=C(COc1ccc2c(-c3ccccc3)cc(=O)oc2c1)NCc1cccs1,"inconclusive: 31.6 µM [activator, single point]",–
O=C(Nc1ccccc1)N1CCc2ccccc21,"inconclusive: 23.1 µM [inhibitor, single point]",–
O=C(Nc1cccc(F)c1)Nc1ccnn1C1CCN(C(=O)c2cscn2)CC1,"inconclusive: 3.16 µM [activator, single point]",–
Cc1cccc(C(=O)Nc2nnc(-c3ccncc3)o2)c1,"inconclusive: 35.5 µM [inhibitor, single point]",–
COc1ccc(CN(C)C2c3ccccc3-c3ccccc32)cc1,"inconclusive: 35.5 µM [inhibitor, single point]",–
COc1ccccc1N(CC(=O)NCCSCc1ccccc1Cl)S(C)(=O)=O,"inconclusive: 10 µM [inhibitor, partial curve, poor fit]",–
CC(O)CNc1nc2ccccc2n1-c1ncnc2sc3c(c12)CCC3 (centres undefined),"inconclusive: 7.3 µM [inhibitor, partial curve, poor fit]",–
Cc1ccc(-c2cc(C(F)(F)F)n3nc(C(=O)NCCCn4ccnc4)cc3n2)cc1C,–,inactive: -11.4%
CCC(=O)Nc1cccc(-c2cnc3ccccc3n2)c1,"inconclusive: 29.1 µM [activator, single point]",–
C[N+](C)(CC#Cc1ccccc1)CC(=O)c1ccccc1,–,inactive: 4.56%
O=[N+]([O-])c1cc(Cl)ccc1NCCNc1ncc(C(F)(F)F)cc1Cl,–,inactive: -2.27%
O=C(c1cc2c(=O)n3ccccc3nc2s1)N1CCN(Cc2ccccc2)CC1,–,inactive: 16.5% [at 46.1 µM]
O=C(NCCN1CCOCC1)/C(=C/c1ccc(F)cc1)NC(=O)c1ccccc1,"inconclusive: 6.31 µM [activator, single point]",–
O=C(COc1coc(CN2CCN(c3ccccc3)CC2)cc1=O)Nc1ccc(F)cc1,–,inactive: 17.3%
COc1cc(/C=C/C(=O)Nc2ccc(C(C)=O)cc2)cc(OC)c1OC,–,inactive: -1.26%
COc1ccc(C(=O)O/N=C(\N)Cc2ccc(Cl)cc2)cc1OC,"inconclusive: 15.8 µM [inhibitor, single point]",–
O=C(Nc1ccc(Br)c(Br)c1)C1CCCO1 (centres undefined),"inconclusive: 8.91 µM [activator, partial curve]",–
CCOC(=O)C1CCCN(C(=O)c2cc(-c3ccc(C)cc3)nc3ccccc23)C1 (centres undefined),"inconclusive: 7.08 µM [inhibitor, partial curve]",–

# Rewritten with bars between the fields: part of the list above.
SMILES | Potency | activity change, negative = inhibition
COc1cc(/C=C/C(=O)Nc2ccc(C(C)=O)cc2)cc(OC)c1OC | – | inactive: -1.26%
COc1ccc(C(=O)O/N=C(\N)Cc2ccc(Cl)cc2)cc1OC | inconclusive: 15.8 µM [inhibitor, single point] | –

# From PubChem BioAssay AID540276 (National Center for Advancing Translational Sciences (NCATS), 2011)
